Measurements as given in patent publication US20140322220A1.
Results are given in words; binding and its absence hold for the method and conditions named. Some binding calls cover weakened binding; strength is not graded here.

Protein sequences, listed by entry. Tags and fused reporters are not part of them. Lines headed by an entry give the natural chain unless they say otherwise; changes in a name come on top. Chains listed by the source or under a name are the forms on record and can include a tag or linker.
mutated human FGFR2 on AN3-CA cells (P21802, form named): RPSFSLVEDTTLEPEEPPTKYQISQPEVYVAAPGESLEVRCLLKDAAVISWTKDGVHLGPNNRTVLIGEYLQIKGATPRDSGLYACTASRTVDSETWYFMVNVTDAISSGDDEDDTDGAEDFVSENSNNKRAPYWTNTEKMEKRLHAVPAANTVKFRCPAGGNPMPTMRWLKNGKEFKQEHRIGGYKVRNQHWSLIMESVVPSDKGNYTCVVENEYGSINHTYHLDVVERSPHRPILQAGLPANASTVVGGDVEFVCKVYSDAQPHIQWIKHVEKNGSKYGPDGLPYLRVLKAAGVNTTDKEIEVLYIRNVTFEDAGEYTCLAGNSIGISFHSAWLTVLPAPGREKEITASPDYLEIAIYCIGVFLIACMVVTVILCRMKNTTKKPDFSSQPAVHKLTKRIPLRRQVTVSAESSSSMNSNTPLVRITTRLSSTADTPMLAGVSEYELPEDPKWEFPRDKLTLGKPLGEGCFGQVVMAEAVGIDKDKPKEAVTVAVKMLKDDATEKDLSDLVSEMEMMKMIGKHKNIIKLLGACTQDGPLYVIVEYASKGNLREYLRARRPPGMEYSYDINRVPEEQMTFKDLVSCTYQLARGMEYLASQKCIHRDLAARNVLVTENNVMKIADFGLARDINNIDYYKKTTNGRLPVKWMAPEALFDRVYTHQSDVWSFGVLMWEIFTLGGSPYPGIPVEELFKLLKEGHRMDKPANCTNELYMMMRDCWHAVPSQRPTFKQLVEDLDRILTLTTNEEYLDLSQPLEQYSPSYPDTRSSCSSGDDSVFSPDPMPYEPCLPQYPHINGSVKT

Molecular target: mutated human FGFR2 on AN3-CA cells (human) (UniProt P21802)
Assay: FACS, 5 ug/ml, AN3CA cells

B1: M021-H02-hIgG1 (antibody, V domains shown)
VH: EVQLLESGGGLVQPGGSLRLSCAASGFTFSNYGIHWVRQAPGKGLEWVAVISYDGSNKYYADSVKGRFTISRDNSKNTLYLQMNSLRAEDTAMYYCARDSSSAEDYWGQGTLVTVSS
VL: QSVLTQPPSASGTPGQRVTISCSGSSSNTGSNTVNWYQQLPGTAPKLLIYRNNQRPSGVPDRFSGSKSGTSASLAISGLRSEDEADYYCETWDSNTRGVVFGGGTKLTVL
**Q.** Which binding does the source give for B1 here?
**A.** binds
